Laboratory results taken from the supplement of paper PMC10338343.
± gives the standard deviation. The entries are a selection whose mix differs from that of the whole data set. Many of these values have a large error.

System: MILI (PIWIL2) piRISC loaded with Kctd7 piRNA (26 nt)
Experiment: pre-steady-state target cleavage rate (min^-1); MIWI and MILI are mouse PIWI proteins and EfPiwi is from a freshwater sponge; tags in brackets are library labels; higher = faster piRNA-guided slicing of the target
Conditions: guide: Kctd7 piRNA 5'p-UGUUAAUCUCUCAGAGAAGGUGACAG; auxiliary factor: 500 nM mouse GTSF1
In short: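 For Cleave-'n-Seq, a transcribed, DNA-blocked target RNA library […] met 1 nM active affinity-purified piRISC with one synthetic guide at 33 °C for 0–8 or 0–960 min in HEPES–potassium acetate buffer, with or without 500 nM GTSF1 partner protein. Uncleaved targets were sequenced and normalised to depth and weakly complementary targets, with three trials pooled and k3 capped at 0.0001 min^-1. A burst-and-steady-state fit supplied the pre-steady-state cleavage rate.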
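Further: 1 nM active piRISC with 0.1 nM target library at 33 °C single turnover.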

Row | Sequence | pre-steady-state target cleavage rate
1 | UAGUGACAGUGGUUCUUCUGAGAGAUUAACA | 0.000573 ± 0.0052
2 | UAGUGACUCUGGUUCUCUGAGAGAUUAAGA | 0.00016 ± 0.025
3 | UAGUGACAGACCUUCUCUGUGAGAAUAACA | 0.00171 ± 0.0077
4 | UAGUCAGUCACCUUCUCUGAGAGUUUAACA | 0.261 ± 0.041
5 | UAGUCUGACACCUUCUCUGAGUGAUUAACA | 0.00145 ± 0.0041
6 | UAGUGACAGUCCUUCAGUGAGAGAUUAUGA | 0.00151 ± 0.0057
7 | UAGUGACUCACCUUCUCUCUGAGAUUAAGA | 0.00113 ± 0.008
8 | UAGUGUGUCACCUUCUGUCAGAGAUUAACA | 0.039 ± 0.0051
9 | UAGUGACACACCUUCUCUGAGUCAUUUUGA | 0.000496 ± 0.019
10 | UAGUGACAGUGGAUCUCUGACUCAUUAACA | 0.000322 ± 0.0087
11 | UAGUGAGUCACCUUCUCUGAGAGAUUACA | 0.153 ± 0.033
12 | UAGUGACAGUGGAACUCUGAGAGUUUAUCA | 0.000115 ± 0.048
13 | UAGUGACAGUGCUUCUCUCAGAGAAUAACA | 0.00118 ± 0.0065
14 | UAGUGACUCACCUUCUCUGUCUGAUUAACA | 0.00106 ± 0.0077
15 | UAGUGACUCACCUUCUCUGAGAGUUAAACA | 0.0666 ± 0.014
16 | UAGUGACUCACCUUCUCUGAGCAGAUUAACA | 0.00131 ± 0.0081
17 | UAGUGACAGUGGUUCUCUGAGAGAUUAGCA | 0.000466 ± 0.0077
18 | UAGUGACAGUCGUUCUCUGAGAGAUAAACA | 0.00167 ± 0.0052
19 | UAGUGACAGACCUUCUCUGGAGAGAUUAACA | 0.000649 ± 0.017
20 | UAGUGUGUCACGAACUCUGAGAGAUUAUGA | 0.00125 ± 0.0077
21 | UAGUGAGUGACCUUCUCUGAGACAUUAACA | 0.0267 ± 0.0076
22 | UAGUGACACACCUUCUCUGAGUCAUUAUGA | 0.00049 ± 0.013
23 | UAGUGACAGUCCUUCACUGAGUGAUUAACA | 0.00216 ± 0.0049

Row | Sequence | pre-steady-state target cleavage rate
24 | UAGUGACAGUGGAACUCUGAGAAUUAACA | 0.000158 ± 0.039
25 | UAGUGACAGUCCUUCUCUGAGUAGAUUAACA | 0.00139 ± 0.0046
26 | UAGUGACAGUCCUUCUCUGAAGAUUAACA | 0.000114 ± 0.028
27 | UAGUGACAGUGCUUCUCUGAGAGUUAAACA | 0.000186 ± 0.0084
28 | UAGUGACAGUGGAAGAGACUCAGAUUAACU [g2:g9:cont:t1U] | 0.000457 ± 0.015
29 | UAGUGAGUCACCUUCUCUGUGAGAUAAACA | 0.0242 ± 0.0096
30 | UAGUGACAGUCGUUCUCUGAGAGAAUAACA | 0.00086 ± 0.0095
31 | UAGUGACAGUGGAAGUCUGACUCAUUAACA | 0.000208 ± 0.017
32 | UAGUGACAGACCUUCUACUGAGAGAUUAACA | 0.000462 ± 0.034
33 | UAGUGACAGACCUUCUCAUGAGAGAUUAACA | 0.00109 ± 0.0098
34 | UAGUGACACACCUUCUCUGAGAGUUAAACA | 0.00447 ± 0.0057
35 | UAGUGACAGUCCUUCUCUGAGAGUAAUUGA [g8:g20:cont:t1A] | < 0.0001
36 | UAGUGACAGUGGAAGUCUGAGGGAUUAACA | 0.000573 ± 0.0045
37 | UAGUGACACACCUUCUCUGAGAAUUAACA | 0.00378 ± 0.0048
38 | UAGUCUGUCACCUUCUCUGAGAGUAUAACA | 0.122 ± 0.022
39 | UAGUGACAGUGCUUCUCUCAGAGAUUAUCA | 0.00269 ± 0.0036
40 | UAGUGACAGUGGAUCUCUGAGAGAUUAACCA | 0.00143 ± 0.0026
41 | UAGUGACUCACCUUCUCUCUCAGAUUAUGA | 0.000154 ± 0.056
42 | UAGUGACAGUCCUUCUCUGUCUGAUUAACA | 0.000839 ± 0.0063
43 | UAGUCUGUCACCUUCUCACAGAGAUUAAGA | 0.00338 ± 0.0044
44 | UAGUGACAGUGGAAGAGACAGAGUAAAACA | 0.000177 ± 0.035
45 | UAGUGACAGACCAACUCUGAGAGAUUAUGA | 0.00108 ± 0.0061
46 | UAGUGAGUCACCUUCUCUGAGAGUAUUAACA | 0.158 ± 0.019

Given as a markdown table: part of the list above.

| Row | Sequence | pre-steady-state target cleavage rate |
| --- | --- | --- |
| 26 | UAGUGACAGUCCUUCUCUGAAGAUUAACA | 0.000114 ± 0.028 |
| 27 | UAGUGACAGUGCUUCUCUGAGAGUUAAACA | 0.000186 ± 0.0084 |
| 28 | UAGUGACAGUGGAAGAGACUCAGAUUAACU [g2:g9:cont:t1U] | 0.000457 ± 0.015 |
| 29 | UAGUGAGUCACCUUCUCUGUGAGAUAAACA | 0.0242 ± 0.0096 |
| 30 | UAGUGACAGUCGUUCUCUGAGAGAAUAACA | 0.00086 ± 0.0095 |
| 31 | UAGUGACAGUGGAAGUCUGACUCAUUAACA | 0.000208 ± 0.017 |
| 32 | UAGUGACAGACCUUCUACUGAGAGAUUAACA | 0.000462 ± 0.034 |
| 33 | UAGUGACAGACCUUCUCAUGAGAGAUUAACA | 0.00109 ± 0.0098 |
| 34 | UAGUGACACACCUUCUCUGAGAGUUAAACA | 0.00447 ± 0.0057 |
| 35 | UAGUGACAGUCCUUCUCUGAGAGUAAUUGA [g8:g20:cont:t1A] | < 0.0001 |
| 36 | UAGUGACAGUGGAAGUCUGAGGGAUUAACA | 0.000573 ± 0.0045 |
| 37 | UAGUGACACACCUUCUCUGAGAAUUAACA | 0.00378 ± 0.0048 |
| 38 | UAGUCUGUCACCUUCUCUGAGAGUAUAACA | 0.122 ± 0.022 |
| 39 | UAGUGACAGUGCUUCUCUCAGAGAUUAUCA | 0.00269 ± 0.0036 |
| 40 | UAGUGACAGUGGAUCUCUGAGAGAUUAACCA | 0.00143 ± 0.0026 |
| 41 | UAGUGACUCACCUUCUCUCUCAGAUUAUGA | 0.000154 ± 0.056 |
| 42 | UAGUGACAGUCCUUCUCUGUCUGAUUAACA | 0.000839 ± 0.0063 |

Next entries follow:

Row | Sequence | pre-steady-state target cleavage rate
47 | UAGUGACUCACCAAGUCUGAGAGAUUAUGA | 0.00166 ± 0.0052
48 | UAGUGAGUCACCUUCUCUGAGAGUUAAACA | 0.297 ± 0.086
49 | UAGUGACUCACCAUCUCUGAGAGAUAUUGA | 0.00115 ± 0.0055
50 | UAGUGACAGUCCUUGUCUGAGAGUUUAACA | 0.00225 ± 0.0063
51 | UAGUGACAGUGCUUCUCUGAGAAAUUAACA | 0.00916 ± 0.0047
52 | UAGUGACAGUGGAACUCUGAGAGGUUAACA | 0.00034 ± 0.018
53 | UAGUGACACACCUUCUCUCUGAGAUUAUGA | 0.00107 ± 0.011
54 | UAGUGACAGUGCAUCUCUGAGAGAUUUACA | 0.00149 ± 0.0043
55 | UAGUGACAGACCUUCUCUGAGAGAAUAUGA | 0.000632 ± 0.016
56 | UAGUGACAGUGCUUCUCUGUAGAGAUUAACA | 0.000264 ± 0.014
57 | UAGUGUGUCAGGAUCUCUGAGAGAUAUUGA | 0.00026 ± 0.013
58 | UAGUCUGUCACCUUGACUGAGAGAUAUUGA | 0.000369 ± 0.02
59 | UAGUGACACACGAUCUCUGAGAGAUUAACA | 0.0352 ± 0.0045
60 | UAGUGACAGUGGAUCUCUGGGAGAUUAACA | 0.0017 ± 0.0023
61 | UAGUGAGUCUGGUUCUCUGAGAGAUUAAGA | 0.00209 ± 0.0047
62 | UAGUGACAGUGGAUGCUCUGAGAGAUUAACA | 0.00231 ± 0.0032
63 | UAGUGACAGUGGAACCCUGAGAGAUUAACA | 0.000164 ± 0.024
64 | UAGUCUGUCACCUUCUCCGAGAGAUUAACA | 0.21 ± 0.038
65 | UAGUCUGUCACCUUCUCUGGAGAGAUUAACA | 0.00236 ± 0.0048
66 | UAGUCUUCACCUUCUCUGAGAGAUUAACA | 0.213 ± 0.019
67 | UAGUGACAGUGCUUCUCUGGAGAGAUUAACA | 0.000127 ± 0.022
68 | UAGUGACAGUGGUUCUGUGAGAGAUUAUCA | 0.00128 ± 0.0063
69 | UAGUGACAGUGGAAGACUGAGAGAGUUAACA | 0.000235 ± 0.014

Row | Sequence | pre-steady-state target cleavage rate
70 | UAGUCUGUGACCUUCUCUGAGUGAUUAACA | 0.002 ± 0.0047
71 | UAGUGACUCACCUUCUCUGUCUGAUAUUGA | 0.00023 ± 0.038
72 | UAGUGACAGUGGAAGACUCAGUGAUUAACA | 0.000263 ± 0.02
73 | UAGUGUGUCACCUUGACUGAGAGAUUAUGA | 0.000806 ± 0.013
74 | UAGUGACAGUGCUUCUCUGAGUGAUUAACA | 0.000967 ± 0.0051
75 | UAGUGACAGACCAUCUCUGAGUGAUUAACA | 0.00125 ± 0.0083
76 | UAGUGUGUCACCUUGUCUGAGAGAUUAACA | 0.134 ± 0.021
77 | UAGUGACAGUGCUUCUCGAGAGAUUAACA | 0.00253 ± 0.0049
78 | UAGUGUGUCACCUUGAGUGAGAGAUUAUGA | 0.000567 ± 0.022
79 | UAGUGACACACCUUCUCUGACACAUUAACA | 0.00164 ± 0.0058
80 | UAGUGACAGUGGAAGUCUGAGAUGAUUAACA | 0.000491 ± 0.007
81 | UAGUCUGUCACCUUCUCUGUGUGAUUAACA | 0.00321 ± 0.0053
82 | UAGUGAGUCACCUUGACUGAGAGAUUUUGA | 0.000491 ± 0.022
83 | UAGUGAGUCACCUUCUCUGAGUCAUAUUGA | 0.0008 ± 0.012
84 | UAGUGACAGUCCUUCUCUGUGAGAUUAUGA | 0.00149 ± 0.0049
85 | UAGUGACACACCUUGACUGAGAGAUUUUGA | 0.00107 ± 0.013
86 | UAGUGACUCACCUUCAGAGAGAGAUAUUGA | 0.000401 ± 0.015
87 | UAGUGAGUCACCUUCAGAGAGAGAUUAUGA | 0.00216 ± 0.007
88 | UAGUGACAGUGCAUCUCUGAGAGAUUAAGA | 0.00125 ± 0.005
89 | UAGUGACUCACCUUCUCUCUCAGAUUAACA | 0.00199 ± 0.0047
90 | UAGUGACAGUCCUUGUGUGAGAGAUUAACA | 0.0291 ± 0.0078
91 | UAGUGACAGUGGAAGACUGAGAGAUUAAACA | 0.000127 ± 0.019
